Data: patent EP1124440B1, “USE OF […] FOR FOODSTUFF AND COSMETIC MATERIAL” (Aquacal Limited, priority 1998, dated 2000)

Settings: ice-cream

Compound: O=C([O-])[O-].[Ca+2] [Calcium Carbonate]
- Grittiness (1 = very gritty, 5 = not gritty): 4.3
- Taste (1 = very poor, 5 = very good): 2.8
- Acceptability (1 = worst, 5 = best): 2.9
- Preference (number of the 19 panellists): 1
- panellists preferred (share of 19 panellists): 5%
